Record: PubChem BioAssay AID1259254 (NCATS, 2017)
Here is a random part of about 59,000 reagents tested. Of all reagents, about 1,550 (2.6%) were called active. 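G2 share is only a proxy for re-replication; each gene was hit by three separate siRNAs, and active genes were retested.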 The numbers tell different reagents against one gene apart. Not all columns of the deposit are shown. Not stated in the record: the amount of reagent.

Test: 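Gene knock-downs that lead to re-replication, shown by excess G2 DNA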 (primary screen)
Cell system: human HCT116 colorectal cancer cells
Knock-down reagent: single siRNA against human genes
Timing: 3 days
Measured: 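Nuclei stained with Hoechst and imaged; cell-cycle phase assigned by DNA content; G2 share scaled per plate, non-targeting siRNA 0%, GMNN siRNA 100%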
Scale: G2 robust z-score and G2 cells, % of GMNN control: higher = more G2 cells, more excess DNA replication
Active means: 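Active siRNAs have a G2 robust z of 5 or more median absolute deviations over the median, which in these data means about 38% or higher of GMNN control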

Gene	reagent no.	G2 robust z-score	G2 cells, % of GMNN control	Outcome
RAB34	1	1.6	14.2	inactive
RAB34	2	-1.1	-4.76	inactive
RAB34	3	-0.713	-2.05	inactive
DNAJB1	1	0.277	4.92	inactive
DNAJB1	2	-0.67	-1.75	inactive
DNAJB1	3	0.0401	3.25	inactive
GPAM	1	4.29	33.1	inactive
GPAM	2	-0.494	-0.51	inactive
GPAM	3	2.47	20.4	inactive
C17orf75	1	-0.169	1.78	inactive
C17orf75	2	-0.633	-1.48	inactive
C17orf75	3	3.1	24.8	inactive
UBR2	1	0.318	5.21	inactive
UBR2	2	-0.443	-0.151	inactive
UBR2	3	-1	-4.09	inactive
TAAR1	1	-0.306	0.816	inactive
TAAR1	2	-1.22	-5.65	inactive
TAAR1	3	-0.563	-0.995	inactive
ZDHHC11	1	1.56	14	inactive
ZDHHC11	2	-0.565	-1.01	inactive
ZDHHC11	3	2.8	22.7	inactive
SERPINA2	1	2.77	22.5	inactive
SERPINA2	2	0.942	9.6	inactive
SERPINA2	3	2.56	21	inactive
TMEM219	1	-0.999	-4.06	inactive
TMEM219	2	-0.32	0.717	inactive
TMEM219	3	0.454	6.16	inactive
GNB4	1	-0.501	-0.555	inactive
GNB4	2	-1.28	-6.03	inactive
GNB4	3	-0.483	-0.434	inactive
DCAF6	1	-1.04	-4.34	inactive
DCAF6	2	-0.534	-0.791	inactive
DCAF6	3	0.753	8.27	inactive
CLASP2	1	-0.777	-2.5	inactive
CLASP2	2	3.65	28.6	inactive
CLASP2	3	1.19	11.3	inactive
SFRP2	1	-0.964	-3.81	inactive
SFRP2	2	0.471	6.28	inactive
SFRP2	3	-0.443	-0.149	inactive
TNFRSF18	1	-1.31	-6.27	inactive
TNFRSF18	2	1.12	10.8	inactive
TNFRSF18	3	-0.108	2.21	inactive
SDC4	1	-0.822	-2.81	inactive
SDC4	2	-0.623	-1.41	inactive
SDC4	3	-0.453	-0.219	inactive
OR51V1	1	-0.123	2.1	inactive
OR51V1	2	4.71	36.1	inactive
OR51V1	3	1.06	10.4	inactive
DDX6	1	-0.129	2.06	inactive
DDX6	2	2.32	19.3	inactive
DDX6	3	2.04	17.3	inactive
LMO1	1	0.0355	3.22	inactive
LMO1	2	0.511	6.56	inactive
LMO1	3	-0.777	-2.5	inactive
ALG1L3P	1	1.2	11.4	inactive
ALG1L3P	2	-0.264	1.11	inactive
ALG1L3P	3	0.501	6.5	inactive
MITD1	1	-1.19	-5.41	inactive
MITD1	2	2.06	17.5	inactive
MITD1	3	-0.157	1.86	inactive
VPS37D	1	0.44	6.06	inactive
VPS37D	2	0.386	5.68	inactive
VPS37D	3	-0.133	2.03	inactive
IQSEC3	1	0.858	9	inactive
IQSEC3	2	4.03	31.3	inactive
IQSEC3	3	-0.0293	2.76	inactive
COL15A1	1	0.158	4.08	inactive
COL15A1	2	-0.249	1.21	inactive
COL15A1	3	1.23	11.6	inactive
